System: Pseudomonas aeruginosa
Assay: MIC broth microdilution, Gram-negative clinical isolates
Type: cell-based
Description: Compound A was evaluated in vitro in accordance with defined CLSI documents specific to the organisms (aerobic, anaerobic or yeast) tested in this study. Ampicillin, ceftazidime, cefuroxime, ciprofloxacin, linezolid, and vancomycin were tested alongside as comparator agents for aerobic bacteria; clindamycin and metronidazole were tested as comparators for anaerobes; fluconazole was tested as a comparator for yeast isolates. Stock solutions of Compound A were prepared in dimethyl sulfoxide (DMSO). Ampicillin, ceftazidime, cefuroxime, ciprofloxacin, linezolid, vancomycin, metronidazole, clindamycin, and fluconazole were prepared each according to its manufacturer's guideline.
Minimum inhibitory concentrations (MICs) in μg/ml were determined according to CLSI guideline M7-A7 by broth microdilution. All aerobes were tested using Mueller-Hinton broth medium with the exception of Streptococcus spp., which were tested using cation-adjusted Mueller-Hinton broth supplemented with 2-5% lysed horse blood.

With `CN[C@H](CC(C)C)C(=O)N[C@H]1C(=O)N[C@@H](CC(N)=O)C(=O)N[C@H]2C(=O)N[C@H]3C(=O)N[C@H](C(=O)N[C@H](C(=O)O)c4cc(O)cc(O)c4-c4cc3ccc4O)[C@H](O)c3ccc(c(Cl)c3)Oc3cc2cc(c3O[C@@H]2O[C@H](CO)[C@@H](O)[C@H](O)[C@H]2O[C@H]2C[C@](C)(N)[C@H](O)[C@H](C)O2)Oc2ccc(cc2Cl)[C@H]1O` [Vancomycin] the MIC was > 128 µg/mL.

Source: patent publication US8278309B2, “Synthetic mimetics of host defense and uses thereof” (priority 2008, dated 2012)
